Results on one molecule are retold here after publication PMC11592504.

Results are given in words; binding and its absence hold for the method and conditions named. Binding seen in cells or lysates may run through a third protein. Some results given as binding are weak or reduced against the parent protein; the word gives no strength.

The target in the assay is T1, Caveolin-1 (human (endogenous in primary human ECs)), Q03135.
T1 chain: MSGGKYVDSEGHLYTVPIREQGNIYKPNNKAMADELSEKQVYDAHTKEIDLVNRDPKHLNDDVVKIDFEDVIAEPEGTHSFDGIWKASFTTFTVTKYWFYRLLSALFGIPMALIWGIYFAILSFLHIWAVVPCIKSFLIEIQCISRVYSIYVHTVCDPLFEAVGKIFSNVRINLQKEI
As to the kind of experiment: proximity ligation; Duolink In Situ kit on fixed, permeabilised primary human ECs transfected with empty vector or HA-ADGRL2-FLAG and treated for 20 h with 150 ng/mL active LPS or detoxified LPS; negative controls with only one primary antibody. The following applies: remark: other sources report otherwise.

B1: endothelial NO Synthase, P29474 1-1203 (enzyme)
chain: MGNLKSVAQEPGPPCGLGLGLGLGLCGKQGPATPAPEPSRAPASLLPPAPEHSPPSSPLTQPPEGPKFPRVKNWEVGSITYDTLSAQAQQDGPCTPRRCLGSLVFPRKLQGRPSPGPPAPEQLLSQARDFINQYYSSIKRSGSQAHEQRLQEVEAEVAATGTYQLRESELVFGAKQAWRNAPRCVGRIQWGKLQVFDARDCRSAQEMFTYICNHIKYATNRGNLRSAITVFPQRCPGRGDFRIWNSQLVRYAGYRQQDGSVRGDPANVEITELCIQHGWTPGNGRFDVLPLLLQAPDDPPELFLLPPELVLEVPLEHPTLEWFAALGLRWYALPAVSNMLLEIGGLEFPAAPFSGWYMSTEIGTRNLCDPHRYNILEDVAVCMDLDTRTTSSLWKDKAAVEINVAVLHSYQLAKVTIVDHHAATASFMKHLENEQKARGGCPADWAWIVPPISGSLTPVFHQEMVNYFLSPAFRYQPDPWKGSAAKGTGITRKKTFKEVANAVKISASLMGTVMAKRVKATILYGSETGRAQSYAQQLGRLFRKAFDPRVLCMDEYDVVSLEHETLVLVVTSTFGNGDPPENGESFAAALMEMSGPYNSSPRPEQHKSYKIRFNSISCSDPLVSSWRRKRKESSNTDSAGALGTLRFCVFGLGSRAYPHFCAFARAVDTRLEELGGERLLQLGQGDELCGQEEAFRGWAQAAFQAACETFCVGEDAKAAARDIFSPKRSWKRQRYRLSAQAEGLQLLPGLIHVHRRKMFQATIRSVENLQSSKSTRATILVRLDTGGQEGLQYQPGDHIGVCPPNRPGLVEALLSRVEDPPAPTEPVAVEQLEKGSPGGPPPGWVRDPRLPPCTLRQALTFFLDITSPPSPQLLRLLSTLAEEPREQQELEALSQDPRRYEEWKWFRCPTLLEVLEQFPSVALPAPLLLTQLPLLQPRYYSVSSAPSTHPGEIHLTVAVLAYRTQDGLGPLHYGVCSTWLSQLKPGDPVPCFIRGAPSFRLPPDPSLPCILVGPGTGIAPFRGFWQERLHDIESKGLQPTPMTLVFGCRCSQLDHLYRDEVQNAQQRGVFGRVLTAFSREPDNPKTYVQDILRTELAAEVHRVLCLERGHMFVCGDVTMATNVLQTVQRILATEGDMELDEAGDVIGVLRDQQRYHEDIFGLTLRTQEVTSRIRTQSFSLQERQLRGAVPWAFDPPGSDTNSP
As to B1, the binding result is given as “binds”.
